Laboratory results published in publication PMC4813127.
The comparison behind a weaker result is the experiment's own reference, which may not be listed here. Tags and fusion partners may be left off the protein sequences shown.

Molecular target: T1, ROC1 (regulator of CBF1 + IDD protein) (UniProt B7ERE7)
T1 sequence (looked up, limits assumed): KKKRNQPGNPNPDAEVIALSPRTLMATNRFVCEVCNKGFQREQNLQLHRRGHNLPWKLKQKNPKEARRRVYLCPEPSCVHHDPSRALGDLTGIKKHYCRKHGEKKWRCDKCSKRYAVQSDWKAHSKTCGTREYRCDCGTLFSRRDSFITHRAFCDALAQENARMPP
Experiment: competition with a labelled probe
Conditions: unlabeled mP1 against labeled P1, only slightly interfered; 25 mM HEPES-KOH pH 7.5, 100 mM KCl, 0.1 mM EDTA, 10% glycerol, 1 mM DTT, 1 ug poly(dI-dC), 1 ug GST-ROC1, 20 uL, room temperature 30 min; 8% PAGE in 0.5X TBE; recombinant protein; protein details: N-terminal GST (pGEX5x-1); label: unlabeled competitor

“GGATCCGTCTTTTTTTGATAGCTTG (double strand) [mP1 (CCTGTTT to TTTTTTT)]”: binds more weakly.
